The values below come from patent publication US5439884A (Oregon Regional Primate Research Center, priority 1992, dated 1995).

Data set [1] in a line: general procedure: Boc solid-phase peptide synthesis; methylbenzhydrylamine-polystyrene resin; diisopropylcarbodiimide (hydroxybenzotriazole for some residues). To be noted: whole synthesis, scale 0.73 mmol.
Data set [2] is described as follows: general procedure: Boc solid-phase peptide synthesis; benzhydrylamine-polystyrene resin; diisopropylcarbodiimide (hydroxybenzotriazole for some residues). The note with it: whole synthesis, scale 0.5 mmole.

pGlu-Gln-Trp-Ala-Val-Gly-His-Sta-NH2 had an isolated mass in data set [1] of 77 mg. “D-Phe-Gln-Trp-Ala-Val-Gly-His-Leu-.psi.[CH2 NH]-D-Phe-NH2” yielded an isolated mass in data set [2] of 120 mg. Still for that read-out and setting: under “pGlu-Gln-Trp-Ala-Val-Gly-His-Leu-psi[CH2NH]-Leu-NH2” stands 60 mg.
